{
  "source": "patent US20240317791A1",
  "about": "(priority 2021, published 2024)",
  "origin": "cited, not measured here",
  "details": "cited from earlier work",
  "note": "Read-outs that look alike come from different tables or passages of the source.",
  "data": [
    {"smiles": "C[C@@H]1[C@H](O)[C@@H](C)/C=C/C=C/C=C/C=C/C=C/C=C/C=C/[C@H](O[C@@H]2O[C@H](C)[C@@H](O)[C@H](N)[C@@H]2O)C[C@@H]2O[C@](O)(C[C@@H](O)C[C@@H](O)[C@H](O)CC[C@@H](O)C[C@@H](O)CC(=O)O[C@H]1C)C[C@H](O)[C@H]2C(=O)O", "note": "[Amphotericin B]", "values": [
      {"measurement": "water solubility", "setting": "at physiological pH values", "result": "substantially water insoluble"},
      {"measurement": "water solubility", "setting": "in distilled water", "result": "< 1", "unit": "µg/mL"}
    ]}
  ]
}
